Literature values in US7547680B2, “Benzimidazole derivatives and medical uses thereof” (Kissei Pharmaceuticals, Co., Ltd., priority 2004, dated 2009).
For at least one compound, name, drawing or mass did not settle the structure.

Tested on: CNTs
Conditions: CNT1, CNT2, CNT3; cited from earlier work

SMILES: O=[N+]([O-])c1ccc(CSc2ncnc3c2ncn3C2OC(CO)C(O)C2O)cc1 (stereo not shown) [NBMPR, nitrobenzylthioinosine]
- influence on CNTs: not influenced
